Results from patent publication US8329637B2, “Method for the treatment of automimmune diseases comprising administering rapamycin and IL-10” (priority 2002, dated 2012).
At least one compound was matched to its structure with a doubt left.

Assays:
[1] = tested on: NOD.SCID mice; experiment: Adoptive transfer of splenocytes from treated NOD mice into NOD.SCID mice; type: in vivo, mouse; details: 5×10^6 total splenocytes into NOD.SCID mice, vs splenocytes from diabetic NOD mice (FIG. 10B)
[2] = tested on: Tr1 and CD4+CD25+ T cells; experiment: Tr cell content (cytokine profile by CBA, CD4+CD25+ by FACS) in spleen, PLN and IIC of treated NOD mice; type: cell-based, mouse
Description: Cytokine production by CD4^+ T cells (left panels) and percentages of CD4^+CD25^+ T cells (right panels) were evaluated by CBA and FACS analysis respectively, in the spleen (A), pancreatic lymph nodes (PLN) (B), and islet infiltrating cells (IIC) (C) of untreated-diabetic NOD mice (gray bars), rapamycin-treated mice (white bars), or rapamycin+IL-10-treated mice (black bars). […] The percentages of CD4^+CD25^+ T cells were higher in the spleen, PLN, and IIC of both mice treated with rapamycin alone or rapamycin+IL-10 (black bars). Therefore, in rapamycin+IL-10 treated mice, Tr1 cells are present in the spleen and CD4^+CD25^+ Tr cells are present in the spleen, lymph nodes, and pancreas.
The mechanisms underlying long-term tolerance were analysed in tolerant mice of 50 weeks of age or older. […] However, the proportion of splenic CD4^+ T cells producing IL-4 was the same in both untreated and treated mice. In addition, the percentages of splenic CD4^+CD25^+ T cells were higher in both mice treated with rapamycin alone or rapamycin+IL-10, as compared to untreated-diabetic NOD mice (FIG. 11).
Cell sorting. The cells infiltrating the pancreas were isolated as described (Gregori et al., 2003). The obtained cell population was incubated with antiCD90 mAb-coated microbeads and applied onto MiniMacs columns (Miltenyi Biotec, Bergisch Gladbach, Germany) to obtain purified T cells. CD4^+CD25^+ T cells were sorted with a Multisort kit (Miltenyi) (average purity≧75%). In some experiment CD4^+CD25^+ T cells were sorted aseptically on a FACStar cell sorter (BD) (average purity=99%). IL-10 producing cells were sorted with the murine IL-10 secretion assay enrichment and detection kit (Miltenyi) (average purity≧40%).
For measurement of cytokines released in the media, purified T cells (1×10^5/well) were cultured in 96 well plates stimulated with 10 μg/ml immobilized antiCD3 (BD) and 1 μg/ml soluble antiCD28 (BD). Supernatants were collected after 48 (for IL-5 detection), and 96 hours (for IL-10 and TGF-β detection) of culture.
Flow cytometry. Cells were stained with the indicated Abs (all from BD), and were analyzed with a FACScan flow cytometer equipped with CellQuest software (BD).
Cytokine measurement. Cytokines present in the collected supernatants were quantified by sandwich ELISA or flow cytometry based assay (CBA), using standard commercially available kits (BD). The percentage of cells producing specific cytokines was measured by intracellular staining. Purified T cells were stimulated for 6 hours with 10 μg/ml immobilised antiCD3 and 1 μg/ml soluble antiCD28 (BD) at a concentration of 1×10^6/ml. Brefeldin A was added for the final 3 hours of culture. Intracellular staining was performed as previously described (Trembleau et al. 2000).

[3] = tested on: naïve CD4+ NOD T cells; experiment: In vitro suppression of CFSE-labelled naïve CD4+ NOD T cell proliferation by Tr cells from treated mice; type: cell-based, mouse; details: 1:1 with naïve CD4+ NOD T cells, antiCD3 (FIG. 12B)

## CO[C@H]1C[C@@H]2CC[C@@H](C)[C@@](O)(O2)C(=O)C(=O)N2CCCC[C@H]2C(=O)O[C@H]([C@H](C)C[C@@H]2CC[C@@H](O)[C@H](OC)C2)CC(=O)[C@H](C)/C=C(\C)[C@@H](O)[C@@H](OC)C(=O)[C@H](C)C[C@H](C)/C=C/C=C/C=C/1C [rapamycin]
[1]
  diabetes transfer by splenocytes of treated NOD mice (onset): significant delay in onset of the disease
[2]; FACS, vs untreated-diabetic NOD mice (FIG. 11)
  percentages of CD4+CD25+ T cells in spleen, PLN and IIC: higher
[2]; compared to untreated-diabetic NOD mice (FIG. 11)
  percentages of splenic CD4+CD25+ T cells: higher
[2]; pancreatic lymph nodes (FIG. 11)
  CD4+CD25+ T cells in PLN: high numbers
[2]; spleens of tolerant NOD mice, 50 weeks of age or older (FIG. 11)
  CD4+ Tr1 cells in spleen (cytokine production profile): not in spleen of mice treated with rapamycin alone
[3]
  suppression by CD4+CD25+ T cells isolated from PLN and IIC: strong suppression
